For assay [1], the target named is T1, zebrafish JamC1 ectodomain (zebrafish) (UniProt A3KPA0).
T1 sequence (chain, bait forms, biotin on a specific lysine of the C-terminal BirA acceptor peptide): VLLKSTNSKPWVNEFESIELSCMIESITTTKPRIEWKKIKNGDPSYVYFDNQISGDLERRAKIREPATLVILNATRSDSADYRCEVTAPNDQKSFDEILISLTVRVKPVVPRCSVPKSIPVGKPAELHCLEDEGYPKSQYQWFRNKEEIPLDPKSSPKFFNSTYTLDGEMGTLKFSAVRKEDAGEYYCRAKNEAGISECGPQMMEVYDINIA
The assay can be described thus: ELISA; AVEXIS, Jam benchmark (Fig. 4b): beta-lactamase pentamer prey at 100 pM on 1 pmol monomeric mono-biotinylated bait on streptavidin-coated plate; nitrocefin; both purified.

Assay [2] deals with T1, zebrafish JamC1 ectodomain (zebrafish). The assay can be described thus: ELISA; AVEXIS, Jam benchmark (Fig. 4c): Gaussia luciferase pentamer prey at 100 pM on 1 pmol monomeric mono-biotinylated bait on streptavidin-coated plate; luminescence; both purified.
For assay [3] the target is unchanged. The experiment in a line: ELISA; AVEXIS, Jam benchmark (Fig. 4e): the same biotinylated Gaussia luciferase pentamer preparation as bait (inactivated with coelenterazine, free biotin wash to block remaining sites) and as prey; luminescence; both purified.
The target is the same in assay [4]. The assay can be described thus: ELISA; AVEXIS, Jam benchmark (Fig. 4d): non-biotinylated Gaussia luciferase pentamer prey at 100 pM on 10 fmoles biotinylated Gaussia luciferase pentamer bait inactivated with excess coelenterazine; luminescence; both purified.

Here are results for two molecules from PMC7324543, “Rapid and sensitive large-scale screening of low affinity extracellular receptor protein interactions by using reaction induced inhibition of Gaussia luciferase” (Scientific Reports, 2020).

These are yes or no findings as the source states them, for the method shown. Some results given as binding are weak or reduced against the parent protein; the word gives no strength.

B1: zebrafish JamB1 ectodomain (domain or fragment, UniProt A0A0R4IGV4 19-226)
chain: VTVSSRNPKVEVHEFSDAELSCEFKTEKDTNPRIEWKRKDKEKDVSFVYYGERFVGPFQDRADIEGATVRLRRVTQADAGEYRCEVSAPSDSISLGETNVTLRVLVPPQTPSCDVPSSALTGSQVELRCRDRHSIPPAVYTWYKDNRALPIRHPNATYTVNEFTGVLIPQSHYNPGTVCQHCMYHPNYHIPNTQLTTTFQTHDLNVAA
modifications: bait forms: biotin on a specific lysine of the C-terminal BirA acceptor peptide
Regarding B1, the binding result in assay [1], in assay [2], in assay [3] and in assay [4] was “binds” throughout.

B2: zebrafish JamC1 ectodomain (domain or fragment, UniProt A3KPA0 24-235)
chain: VLLKSTNSKPWVNEFESIELSCMIESITTTKPRIEWKKIKNGDPSYVYFDNQISGDLERRAKIREPATLVILNATRSDSADYRCEVTAPNDQKSFDEILISLTVRVKPVVPRCSVPKSIPVGKPAELHCLEDEGYPKSQYQWFRNKEEIPLDPKSSPKFFNSTYTLDGEMGTLKFSAVRKEDAGEYYCRAKNEAGISECGPQMMEVYDINIA
modifications: bait forms: biotin on a specific lysine of the C-terminal BirA acceptor peptide
Take B2: in assay [2], the binding entry is given as “binds weakly”.
